According to the supplement of paper PMC5949888:
Most values lie at the floor of the assay. Slopes are relative: functional sequences can read slightly below zero.

system: Saccharomyces cerevisiae PS128 hsf1 delta, HSF1(1-493) fusion; assay: growth estimate (transactivation domain function in HSF1 fusion, heat-shock survival) (a.u. (slope of normalised read count over time)); higher = stronger growth at 37°C, i.e. more transactivation activity; details: library: random library

Substance	growth estimate
RAEWQTRGGPRVGAR	< -0.25
RAGESVVSELIAIKLTIPCP	< -0.25
RAGGEGGVAQRPRTVRWRKR	< -0.25
RAGGIIKLSSIGGHE	< -0.25
RAGTPMEAG	< -0.25
RAGVWPRRAGAKRLGISDLR	< -0.25
RAIIDTQQEICGVKVAIKLA	-0.246
RAIILVQVVTALPSLLKAHN	< -0.25
RAISAFAGGNGELEDKACGP	< -0.25
RAKLCKRFGEARNIARQNVH	< -0.25
RAKRCAASEVVVRIFVLTST	-0.243
RALRARHFRWSEALCSCGVS	< -0.25
RALVATVEQGGESFGSLATM	-0.229
RALVR	< -0.25
RALWRT	< -0.25
RANLVLSRANAAYRTTALTN	< -0.25
RAQFAHIGASVSKALRGVPP	-0.246
RAQRARKGIKGIGWLSIDFA	< -0.25
RAQSHVEFKISLGIHTGQNR	< -0.25
RAQYSAALPAV	< -0.25
RARYRRECRPFHWKGKDECL	< -0.25
RAS	< -0.25
RASGQHLVTNNTAR	< -0.25
RASGSECGVHWTQDPTA	0.604

Another view of part of the listing above.

| Substance | growth estimate |
| --- | --- |
| RAGTPMEAG | < -0.25 |
| RAGVWPRRAGAKRLGISDLR | < -0.25 |
| RAIIDTQQEICGVKVAIKLA | -0.246 |
| RAIILVQVVTALPSLLKAHN | < -0.25 |
| RAISAFAGGNGELEDKACGP | < -0.25 |
| RAKLCKRFGEARNIARQNVH | < -0.25 |
| RAKRCAASEVVVRIFVLTST | -0.243 |
| RALRARHFRWSEALCSCGVS | < -0.25 |
| RALVATVEQGGESFGSLATM | -0.229 |
| RALVR | < -0.25 |
| RALWRT | < -0.25 |
| RANLVLSRANAAYRTTALTN | < -0.25 |
| RAQFAHIGASVSKALRGVPP | -0.246 |
| RAQRARKGIKGIGWLSIDFA | < -0.25 |
| RAQSHVEFKISLGIHTGQNR | < -0.25 |
| RAQYSAALPAV | < -0.25 |

(cont.)

Substance	growth estimate
RASPWNQLSRSGVRSPHASG	< -0.25
RASYWGLAV	< -0.25
RATCQCSALLNGDGR	< -0.25
RATRAARNTGSG	< -0.25
RAVIPRMCQQFLSNCLLEWS	< -0.25
RAVISVPRGIGMVGGPACRG	< -0.25
RAVLARAFHARGGKSHGIWH	< -0.25
RAVPTPVVRGWVM	< -0.25
RAVRKVRDWWSHLILQRLTS	< -0.25
RAVTVT	< -0.25
RAWAVHHRTLWLECVGTGLD	< -0.25
RAWGVRMVMRIRTRD	< -0.25
RAWTTNTPGGGCEGY	< -0.25
RAYVPKVCIG	< -0.25
RCALQVCPLSQGSARSYPAP	< -0.25
RCAQWKPSHIPTFLPMMHPG	< -0.25
RCASRPDALVDSNALVGRRG	< -0.25
RCCIYGHVWTRIVGWSQAVA	< -0.25
RCCMEEASDPRRSETAIGAP	< -0.25
RCDPVNWNGEVVSLFRREGA	< -0.25
RCEDTLAKLPAYCPWGTGLP	< -0.25
RCEHKTACKECVLQRTTSIH	< -0.25
RCG	< -0.25
RCGVATCEQQGYAGLSTGPL	< -0.25

Substance	growth estimate
RCHSAVCGCR	< -0.25
RCIAESIRSIKLFEVDGALM	< -0.25
RCISKATKP	< -0.25
RCKVTLARGKSESSGSLRTS	< -0.25
RCLAVVYN	< -0.25
RCLF	< -0.25
RCLSVSPAANTCDSVLDNRE	< -0.25
RCMHSCVCIRLNSVERTAVY	< -0.25
RCNGI	< -0.25
RCNHDPVILAENVDAH	< -0.25
RCPPHLRSQWEKLCVYGKTT	< -0.25
RCQVMA	< -0.25
RCR	< -0.25
RCRARGAIVPFIARRENAGT	< -0.25
RCRFLSDPEVTGMTAIVRTK	< -0.25
RCRLRTHLSG	< -0.25
RCRRIRADLHAISGRETTNL	< -0.25
RCRVVFEIWSCSNLGGRHDY	< -0.25
RCSCGTRWSISLTSDPPQYL	< -0.25
RCSHHGGASEST	< -0.25
RCSRARSPFISKPC	< -0.25
RCSRTRNFGPALER	< -0.25
RCSSVST	< -0.25
